Measured values published in doi:10.1101/2025.02.03.636288.
These are yes or no findings as the source states them, for the method shown. For part of these data: Binding seen in cells or lysates may run through a third protein. Some binding calls cover weakened binding; strength is not graded here. Where a sequence is shown, tags or fusion partners need not be part of it. Each block holds one binder with its values, some of them ahead of it.

Chains of the proteins cited; added tags and fusions are not shown.
UniProt P68400: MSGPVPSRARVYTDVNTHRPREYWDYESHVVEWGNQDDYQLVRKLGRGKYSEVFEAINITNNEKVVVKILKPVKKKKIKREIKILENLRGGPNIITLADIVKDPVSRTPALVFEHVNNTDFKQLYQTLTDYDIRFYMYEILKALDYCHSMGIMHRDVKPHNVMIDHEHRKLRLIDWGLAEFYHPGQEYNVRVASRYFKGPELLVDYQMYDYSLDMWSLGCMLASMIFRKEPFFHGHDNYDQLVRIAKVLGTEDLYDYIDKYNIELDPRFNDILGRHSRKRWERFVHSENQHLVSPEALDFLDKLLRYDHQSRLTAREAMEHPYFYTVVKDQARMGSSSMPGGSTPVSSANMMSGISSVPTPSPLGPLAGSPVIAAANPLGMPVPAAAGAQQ

Legend:
3xFLAG-CK2α = 3xFLAG-CK2α (UniProt P68400); test: co-IP
CSNK2α1-NanoLuc = CSNK2α1-NanoLuc (UniProt P68400); test: FRET or BRET
FLAG-CARD9 T231D (human) [1] = molecular target: FLAG-CARD9 T231D (human) (UniProt Q9H257); test: SDS-PAGE Western blot of oligomeric species
FLAG-CARD9 T231D (human) [2] = molecular target: FLAG-CARD9 T231D (human) (UniProt Q9H257); test: native gel or EMSA
FLAG-CARD9 T231E (human) = FLAG-CARD9 T231E (human) (UniProt Q9H257); test: SDS-PAGE Western blot of oligomeric species

B2: HaloTag-CARD9 (protein, UniProt Q9H257 1-536)
chain: MSDYENDDECWSVLEGFRVTLTSVIDPSRITPYLRQCKVLNPDDEEQVLSDPNLVIRKRKVGVLLDILQRTGHKGYVAFLESLELYYPQLYKKVTGKEPARVFSMIIDASGESGLTQLLMTEVMKLQKKVQDLTALLSSKDDFIKELRVKDSLLRKHQERVQRLKEECEAGSRELKRCKEENYDLAMRLAHQSEEKGAALMRNRDLQLEIDQLKHSLMKAEDDCKVERKHTLKLRHAMEQRPSQELLWELQQEKALLQARVQELEASVQEGKLDRSSPYIQVLEEDWRQALRDHQEQANTIFSLRKDLRQGEARRLRCMEEKEMFELQCLALRKDSKMYKDRIEAILLQMEEVAIERDQAIATREELHAQHARGLQEKDALRKQVRELGEKADELQLQVFQCEAQLLAVEGRLRRQQLETLVLSSDLEDGSPRRSQELSLPQDLEDTQLSDKGCLAGGGSPKQPFAALHQEQVLRNPHDAGLSSGEPPEKERRRLKESFENYRRKRALRKMQKGWRQGEEDRENTTGSDNTDTEGS
modifications: HaloTag NanoBRET 618 Ligand on the HaloTag
binding (CSNK2α1-NanoLuc): binds

B3: FLAG-CARD9 T231D (protein, UniProt Q9H257 1-536)
chain: MSDYENDDECWSVLEGFRVTLTSVIDPSRITPYLRQCKVLNPDDEEQVLSDPNLVIRKRKVGVLLDILQRTGHKGYVAFLESLELYYPQLYKKVTGKEPARVFSMIIDASGESGLTQLLMTEVMKLQKKVQDLTALLSSKDDFIKELRVKDSLLRKHQERVQRLKEECEAGSRELKRCKEENYDLAMRLAHQSEEKGAALMRNRDLQLEIDQLKHSLMKAEDDCKVERKHDLKLRHAMEQRPSQELLWELQQEKALLQARVQELEASVQEGKLDRSSPYIQVLEEDWRQALRDHQEQANTIFSLRKDLRQGEARRLRCMEEKEMFELQCLALRKDSKMYKDRIEAILLQMEEVAIERDQAIATREELHAQHARGLQEKDALRKQVRELGEKADELQLQVFQCEAQLLAVEGRLRRQQLETLVLSSDLEDGSPRRSQELSLPQDLEDTQLSDKGCLAGGGSPKQPFAALHQEQVLRNPHDAGLSSGEPPEKERRRLKESFENYRRKRALRKMQKGWRQGEEDRENTTGSDNTDTEGS
binding (FLAG-CARD9 T231D (human) [1]): binds | binding (FLAG-CARD9 T231D (human) [2]): binds

B4: FLAG-CARD9 T231E (protein, UniProt Q9H257 1-536)
chain: MSDYENDDECWSVLEGFRVTLTSVIDPSRITPYLRQCKVLNPDDEEQVLSDPNLVIRKRKVGVLLDILQRTGHKGYVAFLESLELYYPQLYKKVTGKEPARVFSMIIDASGESGLTQLLMTEVMKLQKKVQDLTALLSSKDDFIKELRVKDSLLRKHQERVQRLKEECEAGSRELKRCKEENYDLAMRLAHQSEEKGAALMRNRDLQLEIDQLKHSLMKAEDDCKVERKHELKLRHAMEQRPSQELLWELQQEKALLQARVQELEASVQEGKLDRSSPYIQVLEEDWRQALRDHQEQANTIFSLRKDLRQGEARRLRCMEEKEMFELQCLALRKDSKMYKDRIEAILLQMEEVAIERDQAIATREELHAQHARGLQEKDALRKQVRELGEKADELQLQVFQCEAQLLAVEGRLRRQQLETLVLSSDLEDGSPRRSQELSLPQDLEDTQLSDKGCLAGGGSPKQPFAALHQEQVLRNPHDAGLSSGEPPEKERRRLKESFENYRRKRALRKMQKGWRQGEEDRENTTGSDNTDTEGS
binding (FLAG-CARD9 T231E (human)): binds

Continued, values first:

binding (3xFLAG-CK2α): binds
B1: FLAG-CARD9 (protein, UniProt Q9H257 1-536)
chain: MSDYENDDECWSVLEGFRVTLTSVIDPSRITPYLRQCKVLNPDDEEQVLSDPNLVIRKRKVGVLLDILQRTGHKGYVAFLESLELYYPQLYKKVTGKEPARVFSMIIDASGESGLTQLLMTEVMKLQKKVQDLTALLSSKDDFIKELRVKDSLLRKHQERVQRLKEECEAGSRELKRCKEENYDLAMRLAHQSEEKGAALMRNRDLQLEIDQLKHSLMKAEDDCKVERKHTLKLRHAMEQRPSQELLWELQQEKALLQARVQELEASVQEGKLDRSSPYIQVLEEDWRQALRDHQEQANTIFSLRKDLRQGEARRLRCMEEKEMFELQCLALRKDSKMYKDRIEAILLQMEEVAIERDQAIATREELHAQHARGLQEKDALRKQVRELGEKADELQLQVFQCEAQLLAVEGRLRRQQLETLVLSSDLEDGSPRRSQELSLPQDLEDTQLSDKGCLAGGGSPKQPFAALHQEQVLRNPHDAGLSSGEPPEKERRRLKESFENYRRKRALRKMQKGWRQGEEDRENTTGSDNTDTEGS

binding (CSNK2α1-NanoLuc): binds
B5: HaloTag-CARD9_T231D (protein, UniProt Q9H257 1-536)
chain: MSDYENDDECWSVLEGFRVTLTSVIDPSRITPYLRQCKVLNPDDEEQVLSDPNLVIRKRKVGVLLDILQRTGHKGYVAFLESLELYYPQLYKKVTGKEPARVFSMIIDASGESGLTQLLMTEVMKLQKKVQDLTALLSSKDDFIKELRVKDSLLRKHQERVQRLKEECEAGSRELKRCKEENYDLAMRLAHQSEEKGAALMRNRDLQLEIDQLKHSLMKAEDDCKVERKHDLKLRHAMEQRPSQELLWELQQEKALLQARVQELEASVQEGKLDRSSPYIQVLEEDWRQALRDHQEQANTIFSLRKDLRQGEARRLRCMEEKEMFELQCLALRKDSKMYKDRIEAILLQMEEVAIERDQAIATREELHAQHARGLQEKDALRKQVRELGEKADELQLQVFQCEAQLLAVEGRLRRQQLETLVLSSDLEDGSPRRSQELSLPQDLEDTQLSDKGCLAGGGSPKQPFAALHQEQVLRNPHDAGLSSGEPPEKERRRLKESFENYRRKRALRKMQKGWRQGEEDRENTTGSDNTDTEGS
modifications: HaloTag NanoBRET 618 Ligand on the HaloTag
